These are yes or no findings as the source states them, for the method shown. Binding seen in cells or lysates may run through a third protein. These calls come from enrichment with a bait or labelling near it, and not all partners need be listed.

Sequences of proteins named here, by UniProt entry; tags and fusion partners are left off.
UniProt Q8MQV3: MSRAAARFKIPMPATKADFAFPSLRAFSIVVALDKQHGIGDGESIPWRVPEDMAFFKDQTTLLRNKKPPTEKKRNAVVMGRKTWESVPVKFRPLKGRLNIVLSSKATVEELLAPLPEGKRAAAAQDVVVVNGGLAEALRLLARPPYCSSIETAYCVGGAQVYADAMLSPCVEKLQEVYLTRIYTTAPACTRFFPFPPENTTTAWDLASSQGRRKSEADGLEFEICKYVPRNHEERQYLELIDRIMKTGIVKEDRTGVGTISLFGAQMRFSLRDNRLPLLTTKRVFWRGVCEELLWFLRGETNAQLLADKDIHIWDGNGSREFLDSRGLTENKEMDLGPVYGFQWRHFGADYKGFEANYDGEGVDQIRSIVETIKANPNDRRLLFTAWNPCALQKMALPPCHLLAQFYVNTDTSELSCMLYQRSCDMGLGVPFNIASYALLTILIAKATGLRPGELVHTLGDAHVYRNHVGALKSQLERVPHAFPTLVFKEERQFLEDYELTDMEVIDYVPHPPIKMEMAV

B1: ATP-dependent phosphofructokinase (enzyme, UniProt A4I4W5 1-486)
chain: METRHHLNTKMVPSYQAPLSKVTAADLTVERLPGCKYMNPSKKHILREEYRDKVEHIMYDPRPQEDLDAEYPVSCNKLVCELAAARKHLHFNPSETSIGIVTCGGICPGLNDVIRSITLTGIISYRVKRVVGFRYGYWGLSKEGSKTAIELSRSDVRQIHRFGGTILGSSRGPQNPKEMVDTLVRMKINILFTVGGDGTQRGALTIYEEAKRRGENIAVFGVPKTIDNDLAFSHRTFGFQTAVEQAVNAVRAAYAEAVSLNYGVGIVKLMGRESGFIAAQTTVASAQANICLIPENPLPKETVMRLIERRLQQSRNCVIVVAEGFGQDWETGTGGHDASGNKKLVDIGFILKKEVESWLRANKEKFPQGTVKYIDPSYMIRACPPSSNDALFCTNLATLAVHEAMAGATGCIISMRYNNYILVPIKAATSVRRVVSLRGALWRQVREITVGLSDDVQQWNEQDLRRHLESLNVERERIIARLASKV
B2: Poly(A)-binding protein 1 (protein, UniProt A4IC57 1-560)
chain: MAAAVQEAAAPVAHQPQMDKPMQIASIYVGDLDAAINEPQLVELFKPFGTILNVRVCRDIITQRSLGYGYVNFDNHDSAEKAIESMNFKRVGDKCVRLMWQQRDPALRYSGNGNVFVKNLEKDVDSKSLHDIFTKFGSILSCKVMQDEEGKSRGYGFVHFKDETSAKDAIVKMNGAADHASEDKKALYVANFIRRNARLAALVANFTNVYIKQVLPTVNKEVIEKFFAKFGGITSAAACKDKSGRVFAFCNFEKHDDAVKAVEAMHDHHIDGITAPGEKLYVQRAQPRSERLIALRQKYMQHQSLGNNLYVRNFDPEFTGADLLELFKEYGEVKSCRVMVSESGASRGFGFVSFSNADEANAALREMNGRMLNGKPLIVNIAQRRDQRYTMLRLQFQQRLQMMMRQMHQPMPFVGGQGRPMRGRGGRQQLGGRAQGHPMPMPSPQQPQAPAQPQGFATPSAVGFVQATPKHSPGDVPETPPLPPITPQELESMSPQEQRAALGDRLFLKVYEIAPELAPKITGMFLEMKPKEAYELLNDQKRLEERVTEALCVLKAHQTA
B3: Gamma-glutamylcysteine synthetase (enzyme, UniProt A4HY37 1-687)
chain: MGLLTTGGAPIQWGTDANRKAIPHVREHGIQQFLNVFKNKKDLHGMPFLWGEELEHQLIQIHDNTVTLSTESAMVMNKLRARPDNCAVWNPEYGSFMIESTPDHPYSLSVESLDSVQDNIERRYDMLNKEAPPGVVGTTFVTFPLMGQGNFVHCSDKSSPYSQSLFVPDACINQTHPRFANLTANIRLRRGQKVCVLVPLYMDSRTMQDTVDPQLNIDLTPHNKDICYSMRENGRNMTDELYAETDASAALLVPSSSLDPREDYPVTETLKQLFTPATLYYYAQYFTGQRREHMQERYNACNCPATLVSHPCIYMDCMAFGMGNSALQVTMQLDNIHEARHVYDQLAILCPAFLALSSATPFQKGLLCDTDVRWLTIAGAVDDRRVEEVPRILKSRYDSISVFISDRTENLEEFNDSQIAINRSYCELLKDSGVDVRLANHIAHLFIRDPLVIYDKMIDIDDTTHTEHFDNIQSTNWQTVRFKPPPIGNDIGWRVEFRVMDIQPTPFENAAFAVFIPLLTKAIITYKPCFYTKISIVDENMGRAHRINPCGEQYIMRKDIFADKCTASDEETARMSIDEIFNGKEGGFYGLIPLVCRYLDDEGKRSPLVNSYLKFLSMRASGRIPTPAQYMRKFVTTHPDYKHDSRLTDSIARDLVQRMHGLAANQIHDDDYLPMSFFTADAVESTK

The first assay concerns the target HA-tagged L. infantum DRBD2 (L. infantum) (UniProt E9AHW1). The experiment in a line: affinity purification with mass spectrometry; anti-HA magnetic beads, HA-tagged RBP23 or DRBD2 from L. infantum cytoplasmic extracts (nitrogen cavitation), 1 h at 4 C, washed with PBS, not RNase treated; control: extracts of non-transfected cells; two independent experiments.
Turning to “ATP-dependent DEAD/H RNA helicase LINF_220021200 (from UniProt A4I009) (enzyme)”, the binding entry was “binds”.

For “ATP-dependent RNA helicase HEL67 (from UniProt A4I7K4) (enzyme)”, the binding result is “binds”.

Consider “CCCH-Zinc finger 31 (from UniProt A4ICR0)”, for which the binding entry is “binds”.

“CCCH-Zinc finger 39 (from UniProt A4HY52)”: the binding entry was “binds”.

In the case of “CCCH-Zinc finger 40 (from UniProt A4HY39)”, the binding entry is recorded as “binds”.

With “Guide RNA associated protein 1 (from UniProt A4I9B3)”, the binding entry is listed as “binds”.

Regarding “Guide RNA associated protein 2 (from UniProt A4HZU2)”, the binding entry is listed as “binds”.

“Inosine-5'-monophosphate dehydrogenase (from UniProt A4HYI5) (enzyme)”: the binding result is “binds”.

Consider “Kinetoplast polyadenylation factor 1 (from UniProt A4HXM7)”, for which the binding entry is “binds”.

For “LINF_210009700, RNA-binding protein with NTF2 domain (from UniProt A4HZ42)”, the binding result is “binds”.

On to “Mitochondrial RNA binding complex 1 subunit KRBP72/MRB1590 (from UniProt A4I1K0)”, for which the binding entry was “binds”.

Turning to “Mitochondrial RNA binding complex 1 subunit RESC11B/MRB4150 (from UniProt A4I6F7)”, the binding entry is recorded as “binds”.

Regarding “Mitochondrial RNA binding protein 1 (from UniProt A4I2R2)”, the binding result is “binds”.

Turning to “Mitochondrial RNA binding protein 2 (from UniProt A4HU34)”, the binding entry is recorded as “binds”.

“Mitochondrial edited mRNA stability factor 1 (from UniProt A4I866)”: the binding entry was “binds”.

For the molecule “Mitochondrial edited mRNA stability factor 2 (from UniProt A4I377)”, the binding entry is recorded as “binds”.

Take “Mitochondrial edited mRNA stability factor 3 (from UniProt E9AHZ5)”: the binding entry was “binds”.

For “Monooxygenase (from UniProt A4HT15) (enzyme)”, the binding entry is listed as “binds”.

Regarding “PAS-domain containing phosphoglycerate kinase (from UniProt A4I628) (enzyme)”, the binding result was “binds”.

Take “Poly(A) Specific Ribonuclease Subunit PAN3 (from UniProt A4I7N9)”: the binding result is given as “binds”.

As for “Polyadenylation mediator complex 1 (from UniProt A4HYT7)”, the binding entry was “binds”.

Turning to “Polyadenylation mediator complex 3 (from UniProt A4HZ59)”, the binding result is reported as “binds”.

With “Pumilio protein 6 (from UniProt A4I8Y0 1-837)”, the binding result is “binds”.

Take “RGG-containing protein 1 (from UniProt A4I5A9)”: the binding result is listed as “binds”.

In the case of “RGG-containing protein 2 (from UniProt A4I8P4)”, the binding result is listed as “binds”.

As to “RNA editing mediator complex protein 1 (from UniProt A4IDQ5)”, the binding entry is recorded as “binds”.

On to “RNA editing mediator complex protein 5 (from UniProt A4I6F8)”, for which the binding result was “binds”.

With “RNA-binding protein 12 (from UniProt A4HXT4)”, the binding entry is on record as “binds”.

As for “RNA-binding protein 43 (from UniProt A4I171)”, the binding entry is on record as “binds”.

On to “Three RRMs containing protein 1 (from UniProt A4I2Y0)”, for which the binding entry is “binds”.

As to “gRNA binding complex subunit 5 (from UniProt A4I8Z1)”, the binding entry is “binds”.

With “gRNA binding complex subunit 6 (from UniProt A4HTQ0)”, the binding entry is “binds”.

In the case of “mRNA cap guanine-N7 methyltransferase (from UniProt A4HUW9) (enzyme)”, the binding result is given as “binds”.

In the case of “tRNA (Uracil-5-)-methyltransferase LINF_200021600 (from UniProt A4HZ00) (enzyme)”, the binding entry is “binds”.

Consider B1, for which the binding result was “binds”.

The next assay deals with HA-tagged L. infantum RBP23 (L. infantum) (UniProt A4HXC9). The description is as above.
On to “CCR4-NOT complex subunit 10 (from UniProt A4IE22)”, for which the binding entry is listed as “binds”.

As for “CCR4-NOT complex subunit 11 (from UniProt A4I038)”, the binding result was “binds”.

Take “CCR4-associated factor (from UniProt A4I022)”: the binding result is recorded as “binds”.

“Dihydrofolate reductase-thymidylate synthase (from UniProt Q8MQV3 1-520) (enzyme)”: the binding result is “binds”.

For the molecule “Dynamin-1-like protein (from UniProt A4I4S9)”, the binding result is given as “binds”.

As to “EIF4E1-interacting protein 2 (from UniProt A4I8Q2)”, the binding result is recorded as “binds”.

“Eukaryotic translation initiation factor 3 G (from UniProt A4IA46)”: the binding result was “binds”.

For “Eukaryotic translation initiation factor 4E1 (from UniProt A4I2V4)”, the binding entry is “binds”.

Regarding “Eukaryotic translation initiation factor 4E4 (from UniProt A4I573)”, the binding result is recorded as “binds”.

Turning to “LINF_080013100, BAR domain protein (from UniProt A4HTM7)”, the binding result is listed as “binds”.

“LINF_210020800, PPR domain protein (from UniProt A4HZC4)”: the binding result is “binds”.

On to “LINF_260021000, RING-zinc finger protein (from UniProt A4I293)”, for which the binding entry is on record as “binds”.

As for “Mitochondrial-associated protein MRB1AP (from UniProt A4HV02)”, the binding entry is recorded as “binds”.

As to “PAB1-binding protein (from UniProt A4HUM3)”, the binding entry is “binds”.

On to “Poly A polymerase, regulatory subunit (from UniProt E9AH23)”, for which the binding result is reported as “binds”.

For “Purine-Responsive Element Binding Protein 1 (from UniProt A4I6R7)”, the binding entry is recorded as “binds”.

For “Serine-threonine kinase receptor-associated protein (from UniProt A4I2S5)”, the binding entry is recorded as “binds”.

Regarding “tRNA (Guanine-1)-methyltransferase LINF_300036300 (from UniProt A4I5Y8) (enzyme)”, the binding entry is reported as “binds”.

In the case of B2, the binding entry was “binds”.

Turning to B3, the binding entry was “binds”.

Values taken from PMC8575317.
